# Reference: the supplement of paper PMC11438910
# Some of the results follow. Only a few entries rise above the background.
# What was measured:
# Experiment in all cases: fluorescence intensity of antibody binding to polysaccharide-coupled beads; higher = stronger binding
# [1] = molecular target: pneumococcal polysaccharide Pn18B
# [2] = molecular target: pneumococcal polysaccharide Pn18C
# [3] = molecular target: pneumococcal polysaccharide Pn18F
# [4] = molecular target: pneumococcal polysaccharide Pn19A
# [5] = molecular target: pneumococcal polysaccharide Pn19B
# [6] = molecular target: pneumococcal polysaccharide Pn19C
# [7] = molecular target: pneumococcal polysaccharide Pn19F
# [8] = molecular target: pneumococcal polysaccharide Pn2
# [9] = molecular target: pneumococcal polysaccharide Pn20A
# [10] = molecular target: pneumococcal polysaccharide Pn20B
# [11] = molecular target: pneumococcal polysaccharide Pn21
# [12] = molecular target: pneumococcal polysaccharide Pn22A
# [13] = molecular target: pneumococcal polysaccharide Pn22F
# [14] = molecular target: pneumococcal polysaccharide Pn23A
# [15] = molecular target: pneumococcal polysaccharide Pn23B
# [16] = molecular target: pneumococcal polysaccharide Pn23F
# [17] = molecular target: pneumococcal polysaccharide Pn24A
# [18] = molecular target: pneumococcal polysaccharide Pn24B
# [19] = molecular target: pneumococcal polysaccharide Pn24F
# [20] = molecular target: pneumococcal polysaccharide Pn25A
# [21] = molecular target: pneumococcal polysaccharide Pn25F
# [22] = molecular target: pneumococcal polysaccharide Pn27
# [23] = molecular target: pneumococcal polysaccharide Pn28A
# [24] = antibody concentration 2.8593 ng/mL
# [25] = antibody concentration 15.2894 ng/mL
# [26] = antibody concentration 81.7561 ng/mL
# [27] = antibody concentration 437.17 ng/mL
# [28] = antibody concentration 2337.65 ng/mL
# [29] = antibody concentration 12500 ng/mL
# [30] = antibody concentration 0.1 ng/mL
# [31] = antibody concentration 0.534724 ng/mL
binder,measurement,setting,value
4-173.5 (protein) chain 1: QLQLQESGPGLVKPSETLSLTCAVSGDSISSNYWSWIRQPPGKGLEWIGRISDGGGSTDYNPSLKSRVTISTDTSKNQFSLKLNSVTAADTAVYFCARGSYRVDYWGQGVLVTVSS chain 2: QAALTQPPSMSGSPGQSVTISCTGASSDIGGYNRVSWYQQHPANAPKLMIYDVSKRPSGVSDRFSGSKSGNTASLTISGLQADDEADYYCSSYAHINTALFGGGTRLTVL,fluorescence intensity,[1]; [24],31.5 MFI
same,fluorescence intensity,[1]; [25],40.5 MFI
same,fluorescence intensity,[1]; [26],125 MFI
same,fluorescence intensity,[1]; [27],578 MFI
same,fluorescence intensity,[1]; [28],2100 MFI
same,fluorescence intensity,[1]; [29],3810 MFI
same,fluorescence intensity,[2]; [30],19 MFI
same,fluorescence intensity,[2]; [31],19.5 MFI
same,fluorescence intensity,[2]; [24],20.5 MFI
same,fluorescence intensity,[2]; [25],29 MFI
same,fluorescence intensity,[2]; [26],86 MFI
same,fluorescence intensity,[2]; [27],287 MFI
same,fluorescence intensity,[2]; [28],816 MFI
same,fluorescence intensity,[2]; [29],1530 MFI
same,fluorescence intensity,[3]; [30],23 MFI
same,fluorescence intensity,[3]; [31],22.5 MFI
same,fluorescence intensity,[3]; [24],23 MFI
same,fluorescence intensity,[3]; [25],26.8 MFI
same,fluorescence intensity,[3]; [26],58 MFI
same,fluorescence intensity,[3]; [27],253 MFI
same,fluorescence intensity,[3]; [28],1230 MFI
same,fluorescence intensity,[3]; [29],2450 MFI
same,fluorescence intensity,[4]; [30],18 MFI
same,fluorescence intensity,[4]; [31],18.5 MFI
same,fluorescence intensity,[4]; [24],21.5 MFI
same,fluorescence intensity,[4]; [25],41.8 MFI
same,fluorescence intensity,[4]; [26],136 MFI
same,fluorescence intensity,[4]; [27],566 MFI
same,fluorescence intensity,[4]; [28],1630 MFI
same,fluorescence intensity,[4]; [29],2700 MFI
same,fluorescence intensity,[5]; [30],29 MFI
same,fluorescence intensity,[5]; [31],30 MFI
same,fluorescence intensity,[5]; [24],32.5 MFI
same,fluorescence intensity,[5]; [25],34.5 MFI
same,fluorescence intensity,[5]; [26],83 MFI
same,fluorescence intensity,[5]; [27],468 MFI
same,fluorescence intensity,[5]; [28],2360 MFI
same,fluorescence intensity,[5]; [29],5570 MFI
same,fluorescence intensity,[6]; [30],26.2 MFI
same,fluorescence intensity,[6]; [31],25.2 MFI
same,fluorescence intensity,[6]; [24],28.8 MFI
same,fluorescence intensity,[6]; [25],45.5 MFI
same,fluorescence intensity,[6]; [26],236 MFI
same,fluorescence intensity,[6]; [27],1440 MFI
same,fluorescence intensity,[6]; [28],6140 MFI
same,fluorescence intensity,[6]; [29],10800 MFI
same,fluorescence intensity,[7]; [30],26 MFI
same,fluorescence intensity,[7]; [31],27 MFI
same,fluorescence intensity,[7]; [24],32.8 MFI
same,fluorescence intensity,[7]; [25],63.5 MFI
same,fluorescence intensity,[7]; [26],234 MFI
same,fluorescence intensity,[7]; [27],1000 MFI
same,fluorescence intensity,[7]; [28],2670 MFI
same,fluorescence intensity,[7]; [29],4040 MFI
same,fluorescence intensity,[8]; [30],20 MFI
same,fluorescence intensity,[8]; [31],20 MFI
same,fluorescence intensity,[8]; [24],20.2 MFI
same,fluorescence intensity,[8]; [25],27.5 MFI
same,fluorescence intensity,[8]; [26],96.8 MFI
same,fluorescence intensity,[8]; [27],382 MFI
same,fluorescence intensity,[8]; [28],1310 MFI
same,fluorescence intensity,[8]; [29],2240 MFI
same,fluorescence intensity,[9]; [30],22 MFI
same,fluorescence intensity,[9]; [31],23 MFI
same,fluorescence intensity,[9]; [24],24 MFI
same,fluorescence intensity,[9]; [25],33.5 MFI
same,fluorescence intensity,[9]; [26],116 MFI
same,fluorescence intensity,[9]; [27],612 MFI
same,fluorescence intensity,[9]; [28],2340 MFI
same,fluorescence intensity,[9]; [29],4410 MFI
same,fluorescence intensity,[10]; [30],24.5 MFI
same,fluorescence intensity,[10]; [31],23.5 MFI
same,fluorescence intensity,[10]; [24],26.2 MFI
same,fluorescence intensity,[10]; [25],34.8 MFI
same,fluorescence intensity,[10]; [26],116 MFI
same,fluorescence intensity,[10]; [27],659 MFI
same,fluorescence intensity,[10]; [28],2630 MFI
same,fluorescence intensity,[10]; [29],3860 MFI
same,fluorescence intensity,[11]; [30],19 MFI
same,fluorescence intensity,[11]; [31],19.2 MFI
same,fluorescence intensity,[11]; [24],19 MFI
same,fluorescence intensity,[11]; [25],22.8 MFI
same,fluorescence intensity,[11]; [26],35.5 MFI
same,fluorescence intensity,[11]; [27],142 MFI
same,fluorescence intensity,[11]; [28],613 MFI
same,fluorescence intensity,[11]; [29],1230 MFI
same,fluorescence intensity,[12]; [30],20.8 MFI
same,fluorescence intensity,[12]; [31],22 MFI
same,fluorescence intensity,[12]; [24],24 MFI
same,fluorescence intensity,[12]; [25],47 MFI
same,fluorescence intensity,[12]; [26],212 MFI
same,fluorescence intensity,[12]; [27],1140 MFI
same,fluorescence intensity,[12]; [28],3870 MFI
same,fluorescence intensity,[12]; [29],6180 MFI
same,fluorescence intensity,[13]; [30],32.5 MFI
same,fluorescence intensity,[13]; [31],30.2 MFI
same,fluorescence intensity,[13]; [24],34.5 MFI
same,fluorescence intensity,[13]; [25],44 MFI
same,fluorescence intensity,[13]; [26],118 MFI
same,fluorescence intensity,[13]; [27],490 MFI
same,fluorescence intensity,[13]; [28],1560 MFI
same,fluorescence intensity,[13]; [29],2440 MFI
same,fluorescence intensity,[14]; [30],27 MFI
same,fluorescence intensity,[14]; [31],26.5 MFI
same,fluorescence intensity,[14]; [24],26.2 MFI
same,fluorescence intensity,[14]; [25],23.5 MFI
same,fluorescence intensity,[14]; [26],28 MFI
same,fluorescence intensity,[14]; [27],70.5 MFI
same,fluorescence intensity,[14]; [28],426 MFI
same,fluorescence intensity,[14]; [29],1800 MFI
same,fluorescence intensity,[15]; [30],29 MFI
same,fluorescence intensity,[15]; [31],29.5 MFI
same,fluorescence intensity,[15]; [24],32.5 MFI
same,fluorescence intensity,[15]; [25],32.2 MFI
same,fluorescence intensity,[15]; [26],51.5 MFI
same,fluorescence intensity,[15]; [27],204 MFI
same,fluorescence intensity,[15]; [28],1120 MFI
same,fluorescence intensity,[15]; [29],2520 MFI
same,fluorescence intensity,[16]; [30],18.8 MFI
same,fluorescence intensity,[16]; [31],17.8 MFI
same,fluorescence intensity,[16]; [24],21 MFI
same,fluorescence intensity,[16]; [25],41 MFI
same,fluorescence intensity,[16]; [26],173 MFI
same,fluorescence intensity,[16]; [27],894 MFI
same,fluorescence intensity,[16]; [28],3040 MFI
same,fluorescence intensity,[16]; [29],4620 MFI
same,fluorescence intensity,[17]; [30],15 MFI
same,fluorescence intensity,[17]; [31],17 MFI
same,fluorescence intensity,[17]; [24],17.5 MFI
same,fluorescence intensity,[17]; [25],31 MFI
same,fluorescence intensity,[17]; [26],135 MFI
same,fluorescence intensity,[17]; [27],702 MFI
same,fluorescence intensity,[17]; [28],2750 MFI
same,fluorescence intensity,[17]; [29],4930 MFI
same,fluorescence intensity,[18]; [30],19.5 MFI
same,fluorescence intensity,[18]; [31],17.8 MFI
same,fluorescence intensity,[18]; [24],19.5 MFI
same,fluorescence intensity,[18]; [25],27 MFI
same,fluorescence intensity,[18]; [26],73.2 MFI
same,fluorescence intensity,[18]; [27],388 MFI
same,fluorescence intensity,[18]; [28],2050 MFI
same,fluorescence intensity,[18]; [29],3780 MFI
same,fluorescence intensity,[19]; [30],18.8 MFI
same,fluorescence intensity,[19]; [31],18 MFI
same,fluorescence intensity,[19]; [24],18.5 MFI
same,fluorescence intensity,[19]; [25],29 MFI
same,fluorescence intensity,[19]; [26],131 MFI
same,fluorescence intensity,[19]; [27],504 MFI
same,fluorescence intensity,[19]; [28],2590 MFI
same,fluorescence intensity,[19]; [29],4080 MFI
same,fluorescence intensity,[20]; [30],23.8 MFI
same,fluorescence intensity,[20]; [31],24.8 MFI
same,fluorescence intensity,[20]; [24],24.5 MFI
same,fluorescence intensity,[20]; [25],34.5 MFI
same,fluorescence intensity,[20]; [26],100 MFI
same,fluorescence intensity,[20]; [27],536 MFI
same,fluorescence intensity,[20]; [28],2630 MFI
same,fluorescence intensity,[20]; [29],5220 MFI
same,fluorescence intensity,[21]; [30],29 MFI
same,fluorescence intensity,[21]; [31],30.5 MFI
same,fluorescence intensity,[21]; [24],31.5 MFI
same,fluorescence intensity,[21]; [25],35 MFI
same,fluorescence intensity,[21]; [26],58 MFI
same,fluorescence intensity,[21]; [27],229 MFI
same,fluorescence intensity,[21]; [28],1090 MFI
same,fluorescence intensity,[21]; [29],2650 MFI
same,fluorescence intensity,[22]; [30],18 MFI
same,fluorescence intensity,[22]; [31],17.5 MFI
same,fluorescence intensity,[22]; [24],17 MFI
same,fluorescence intensity,[22]; [25],25 MFI
same,fluorescence intensity,[22]; [26],80 MFI
same,fluorescence intensity,[22]; [27],400 MFI
same,fluorescence intensity,[22]; [28],1720 MFI
same,fluorescence intensity,[22]; [29],3510 MFI
same,fluorescence intensity,[23]; [30],27.5 MFI
same,fluorescence intensity,[23]; [31],27 MFI
same,fluorescence intensity,[23]; [24],28 MFI
same,fluorescence intensity,[23]; [25],31 MFI
same,fluorescence intensity,[23]; [26],40.5 MFI
same,fluorescence intensity,[23]; [27],126 MFI

# A second format for some results above:
binder | measurement | setting | value
4-173.5 (protein) chain 1: QLQLQESGPGLVKPSETLSLTCAVSGDSISSNYWSWIRQPPGKGLEWIGRISDGGGSTDYNPSLKSRVTISTDTSKNQFSLKLNSVTAADTAVYFCARGSYRVDYWGQGVLVTVSS chain 2: QAALTQPPSMSGSPGQSVTISCTGASSDIGGYNRVSWYQQHPANAPKLMIYDVSKRPSGVSDRFSGSKSGNTASLTISGLQADDEADYYCSSYAHINTALFGGGTRLTVL | fluorescence intensity | [11]; [30] | 19 MFI
same | fluorescence intensity | [11]; [31] | 19.2 MFI
same | fluorescence intensity | [11]; [24] | 19 MFI
same | fluorescence intensity | [11]; [25] | 22.8 MFI
same | fluorescence intensity | [11]; [26] | 35.5 MFI

# Pulled one by one from the entries so far:
binder,measurement,setting,value
4-173.5 (protein) chain 1: QLQLQESGPGLVKPSETLSLTCAVSGDSISSNYWSWIRQPPGKGLEWIGRISDGGGSTDYNPSLKSRVTISTDTSKNQFSLKLNSVTAADTAVYFCARGSYRVDYWGQGVLVTVSS chain 2: QAALTQPPSMSGSPGQSVTISCTGASSDIGGYNRVSWYQQHPANAPKLMIYDVSKRPSGVSDRFSGSKSGNTASLTISGLQADDEADYYCSSYAHINTALFGGGTRLTVL,fluorescence intensity,[9]; [24],24 MFI
same,fluorescence intensity,[18]; [27],388 MFI
